{
  "source": "patent US20110207807A1",
  "about": "“NEW USE FOR HOMOISOFLAVONE OR A SALT THEREOF” (Catholic University Industry Academy Cooperation Foundation, priority 2008, published 2011)",
  "key": {"BALB/c mouse": {"tested_on": "BALB/c mouse", "test": "Ear edema induced by arachidonic acid in animal model", "format": "in vivo", "settings": "topical 1 μg/10 μL homoisoflavanone or 50 μg/10 μL dexamethasone 1 h before arachidonic acid 100 mg/mL 10 μL, 1 hour after AA, vs AA control (FIG. 5a, 5b)", "method": "Experiment was carried out as follows using BALB/c mouse. Test groups are as follows: non-treated group—treated not with arachidonic acid (AA) but only with acetone; control group (AA)-treated with arachidonic acid; test group A—treated with 1 μg/10 μL homoisoflavanone or 50 μg/10 μL dexamethasone as well as 100 mg/mL 10 μL arachidonic acid.\nOne hour before treating with arachidonic acid, 1 μg/10 μL homoisoflavanone or 50 μg/10 μL dexamethasone was applied on the front and rear parts of the ear, 5 μL each. Then, 1 hour after applying 100 mg/mL 10 μL arachidonic acid, ear thickness and weight were measured."}, "hairless mouse (SKH-1)": {"tested_on": "hairless mouse (SKH-1)", "test": "Ear edema induced by phorbol 12-myristate 13-acetate in animal model", "format": "in vivo", "method": "In order to confirm the in vitro test result on the human keratinocytes HaCaT cells in an animal model, experiment was performed as follows using hairless mouse (SKH-1). Test groups are as follows: non-treated group—treated not with phorbol 12-myristate 13-acetate but only with acetone (TPA); test group A—treated with 1 μg/10 μL homoisoflavanone or 50 μg/10 μL dexamethasone; control group (TPA)-treated with 100 μM phorbol 12-myristate 13-acetate; test group B—treated with 1 μg/10 μL homoisoflavanone or 50 μg/10 μL dexamethasone as well as 100 μM phorbol 12-myristate 13-acetate.\nOne hour before treating with phorbol 12-myristate 13-acetate, 1 μg/10 μL homoisoflavanone or 50 μg/10 μL dexamethasone was applied on the front and rear parts of the ear, 5 μL each. Then, 6 hour after the application of phorbol 12-myristate 13-acetate, ear thickness and weight were measured.\nIn order to investigate overall change in the skin tissue, hematoxylin-eosin staining was carried out."}, "[1]": {"settings": "topical 1 μg/10 μL homoisoflavanone or 50 μg/10 μL dexamethasone 1 h before 100 μM TPA, 6 hour after TPA, vs TPA control (FIG. 4a, 4b)"}},
  "note": "At least one compound was matched to its structure with a doubt left.",
  "data": [
    {"compound": "C[C@@H]1C[C@H]2[C@@H]3CCC4=CC(=O)C=C[C@]4(C)[C@@]3(F)[C@@H](O)C[C@]2(C)[C@@]1(O)C(=O)CO", "note": "[dexamethasone, reference compound]", "values": [
      {"measurement": "ear thickness", "setting": "BALB/c mouse", "value": "decrease"},
      {"measurement": "ear weight", "setting": "BALB/c mouse", "value": "decrease"},
      {"measurement": "hyperplasia in the epidermis (hematoxylin-eosin staining)", "setting": "hairless mouse (SKH-1); 1 μg/10 μL homoisoflavanone or 50 μg/10 μL dexamethasone plus TPA (FIG. 4c)", "value": "significantly reduced"},
      {"measurement": "ear thickness", "setting": "hairless mouse (SKH-1); [1]", "value": "decrease"},
      {"measurement": "ear weight", "setting": "hairless mouse (SKH-1); [1]", "value": "decrease"}
    ]}
  ]
}
